PubChem BioAssay AID1259254 | NCATS, 2017

Test: 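Gene knock-downs that lead to re-replication, shown by excess G2 DNA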 (primary screen)
Cells: human HCT116 colorectal cancer cells
Reagents: single siRNA against human genes
Duration: 3 days
Measured: 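Imaged Hoechst DNA stain sorts each cell into a cycle phase by DNA amount; per plate, G2 fraction set to 0% for non-targeting and 100% for GMNN siRNA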
Scale: G2 robust z-score: higher = more G2 cells, more excess DNA replication
Hit rule: 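Active siRNAs have a G2 robust z of 5 or more median absolute deviations over the median, which in these data means about 38% or higher of GMNN control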
Here is an unselected part of about 59,000 reagents tested. About 1,550 of all reagents (2.6%) were called active. 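G2 share is only a proxy for re-replication; each gene was hit by three separate siRNAs, and active genes were retested.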 Unmarked entries are inactive. Reagents against one gene are numbered here. Further read-outs or replicates are left out here. The record does not give: the amount of reagent.

Silencing of ATP8B2 (GeneID 57198) #1 resulted in: G2 robust z-score -1.02.
Against ATP8B2 (GeneID 57198) #2, the entry reads G2 robust z-score 0.054.
Against ATP8B2 (GeneID 57198) #3, the entry reads G2 robust z-score 0.807.
Against TEKTL1 (GeneID 126402) #1, the entry reads G2 robust z-score -0.833.
Silencing of TEKTL1 (GeneID 126402) #2 gave: G2 robust z-score 6.32 (active).
For TEKTL1 (GeneID 126402) #3, the entry reads G2 robust z-score -0.172.
Silencing of DMAP1 (GeneID 55929) #1 gave: G2 robust z-score -0.44.
DMAP1 (GeneID 55929) #2 gave G2 robust z-score 1.28.
Silencing of DMAP1 (GeneID 55929) #3 resulted in: G2 robust z-score 0.885.
With knock-down of RAB5A (GeneID 5868) #1, the record shows G2 robust z-score 0.733.
With knock-down of RAB5A (GeneID 5868) #2, the screen gave G2 robust z-score -0.408.
With knock-down of RAB5A (GeneID 5868) #3, the record shows G2 robust z-score -0.889.
LOC649294 (retired record) (GeneID 649294) #1 scored G2 robust z-score -0.0625.
Knock-down of LOC649294 (retired record) (GeneID 649294) #2 came out at: G2 robust z-score -0.256.
Knock-down of LOC649294 (retired record) (GeneID 649294) #3 gave: G2 robust z-score -0.321.
Against BMP8A (GeneID 353500) #1, the values are G2 robust z-score -0.589.
Against BMP8A (GeneID 353500) #2, the values are G2 robust z-score -0.664.
Against BMP8A (GeneID 353500) #3, the values are G2 robust z-score -0.843.

Part of the list above, reformatted:
Target gene | reagent | G2 robust z-score
LOC649294 (retired record) (GeneID 649294) | 2 | -0.256
LOC649294 (retired record) (GeneID 649294) | 3 | -0.321
BMP8A (GeneID 353500) | 1 | -0.589

The list goes on.
Against EFCAB3 (GeneID 146779) #1 the deposit lists G2 robust z-score -0.5.
EFCAB3 (GeneID 146779) #2 scored G2 robust z-score 0.0902.
EFCAB3 (GeneID 146779) #3 showed G2 robust z-score -0.451.
Against SNRPD3 (GeneID 6634) #1, the entry reads G2 robust z-score 2.56.
SNRPD3 (GeneID 6634) #2 scored G2 robust z-score 6.96 (active).
For SNRPD3 (GeneID 6634) #3, the values are G2 robust z-score 0.903.
For BHMT2 (GeneID 23743) #1, the entry reads G2 robust z-score 1.56.
After knock-down of BHMT2 (GeneID 23743) #2 the results were G2 robust z-score 0.885.
Against BHMT2 (GeneID 23743) #3, the values are G2 robust z-score -0.438.
TXNIP (GeneID 10628) #1 scored G2 robust z-score 1.47.
Knock-down of TXNIP (GeneID 10628) #2 came out at: G2 robust z-score 1.61.
With knock-down of TXNIP (GeneID 10628) #3, the screen gave G2 robust z-score -0.643.
